# The full ranking holds about 33,000 sequences; the median of “E-score (-0.5 to 0.5)” is about -8e-05, and the highest 2% start at about 0.23. Some of the results follow.
# Molecular target: T1, Nrg2 (UniProt P38082)
# T1 sequence: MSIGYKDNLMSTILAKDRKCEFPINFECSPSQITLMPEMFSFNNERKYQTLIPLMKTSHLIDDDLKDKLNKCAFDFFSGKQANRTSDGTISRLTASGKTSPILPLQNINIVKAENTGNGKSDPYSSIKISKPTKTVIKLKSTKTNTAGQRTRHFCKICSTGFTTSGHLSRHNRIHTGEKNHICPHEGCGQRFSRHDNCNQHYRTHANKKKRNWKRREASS
# Assay: PBM E-score (8-mer binding enrichment) (E-score (-0.5 to 0.5)); higher = stronger / more preferred TF binding
# Settings: protein concentration: 100 nM; construct: GST-full length
# Outline: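 Bound GST-tagged yeast transcription factors, applied at about 100-200 nM to double-stranded universal all-10-mer Agilent arrays, were detected with fluorescent anti-GST. Scans were normalised with masliner. A modified Wilcoxon-Mann-Whitney statistic, the E-score, was assigned to each ungapped eight-base word pooled with its reverse complement by the Universal PBM Analysis Suite.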
row,Sequence,PBM E-score
1,CGTTTTGA,0.12
2,AGTTGAAA,-0.0291
3,CCAGTGGA,-0.0548
4,CCGACAAG,-0.0391
5,ATATGTGA,0.0921
6,CCCTCTCC,-0.243
7,CTTCACAC,0.0494
8,ATAGTAGG,0.0354
9,AGGTTCAA,0.00542
10,CTGTGCGC,-0.0545
11,TACCTAAA,-0.0138
12,GGGCGGAC,-0.254
13,ATAACTGA,0.122
14,TGGCACAA,0.0248
15,GTTGAAAC,0.0316
16,ACATTACT,-0.0152
17,GAGTAATA,0.232
18,CCATTAAC,0.0566
19,AGACTCTC,-0.145
20,TCGTGGAA,0.171
21,CGAGATTA,0.252
22,AAGAAGCC,0.162
23,AACGTCAT,-0.0964
24,AGTTAGGC,-0.0404
25,AGCATCAA,0.129

row,Sequence,PBM E-score
1,ACGTCCGG,-0.139
2,CACTTGTC,0.0228
3,GGGCTTTA,-0.211
4,ACGCTGAA,-0.149
5,CTAGCCGA,0.0809
6,GCGCCTCC,-0.202
7,TAACTCCA,-0.0545
8,AAGACCGT,-0.264
9,CTTATGGC,-0.0261
10,GTCCAACA,0.0526
11,CTCGCTGC,0.178
12,AGTCCCGA,-0.109
13,ACCTAAGG,-0.0627
14,ATGGGATG,-0.056
15,CTGGCACA,-0.0575
16,ATTTTCGC,0.131
17,GCGTAGTA,0.00603
18,AATAGCAC,-0.226
19,CAAATGAC,0.0271
20,GTCATCAA,-0.0631
21,GCCAGGCC,0.0129
22,AACTCAAC,0.132
23,ACCTCGGA,0.131
24,AAGCGAGA,-0.0317
25,GACCCGGC,-0.162

row,Sequence,PBM E-score
1,GCGGCACA,0.0179
2,GGTTCGGA,-0.015
3,CACGTTGA,-0.0134
4,TCTACAGA,-0.165
5,ATTTAACC,0.0679
6,GTTTAGCA,0.0112
7,ATGAGCGA,0.128
8,AGCAAACG,-0.151
9,CACGCACG,0.0453
10,ACAGAGAT,0.0412
11,ATTTTGCC,-0.0941
12,ATTGGGTG,0.16
13,TGCAGTAA,0.131
14,ACCGTGGG,-0.237
15,CATCGTGG,-0.0786
16,ACTAGGCA,-0.136
17,GTCCGGAA,0.0127
18,AGGTCGCA,0.0731
19,GTTTCAAA,0.0234
20,AGGAGGGA,-0.231
21,AGATAAAT,0.0671
22,GACACCAC,-0.115
23,AATGTAGC,-0.0343
24,ACATACTC,-0.161
25,CGTAGTGA,-0.131

# Quoted from the entries so far (2 entries):
row,Sequence,PBM E-score
17,GTCCGGAA,0.0127
18,AGGTCGCA,0.0731

# Further entries.

row,Sequence,PBM E-score
1,ACGGCAGC,0.0388
2,CAGGCGGA,0.164
3,GTCACTCA,0.157
4,TAAAGAGA,0.0364
5,GCAATCTA,0.00861
6,ACTGCGTG,-0.235
7,TGATAACA,0.103
8,CAGCGATC,-0.0507
9,GCAGCTCA,-0.00091
10,CCACCTGA,0.0302
11,ACGGCCTG,0.0146
12,GGAACGCC,-0.209
13,AAAATCAA,0.0602
14,AACACCGC,-0.0853
15,AGTTCGGA,0.0505
16,TGTCTTAA,0.1
17,ATCACTAC,0.0691
18,ATTTGCAA,0.201
19,GAACTGAC,0.0406
20,CTGGTCTC,-0.207
21,ACGTTGCC,-0.198
22,ACCCATTG,-0.131
23,GCAACCAC,0.0541
24,AGTTGGAG,0.111
25,ACAACGCA,0.0498

# Some of the entries so far, as tab-separated lines.
row	Sequence	PBM E-score
1	ACGGCAGC	0.0388
2	CAGGCGGA	0.164
3	GTCACTCA	0.157
11	ACGGCCTG	0.0146
17	ATCACTAC	0.0691
23	GCAACCAC	0.0541

# Next part.

row,Sequence,PBM E-score
1,CCACTAAA,-0.0129
2,AATACCCC,0.0366
3,CGCCTCAG,-0.171
4,ATTTGATC,0.0379
5,CCTATCTA,0.0132
6,AAAACCAG,0.207
7,ATGGAATA,0.235
8,CCTAGAAC,0.131
9,TAATCCCA,-0.0844
10,ATCCGTCG,0.00117
11,GATTGGAC,0.0358
12,ACGGTGAT,0.0582
13,AGCAACAA,0.119
14,CAACGCGC,0.215
15,AATATCTC,0.0954
16,GTCCTCGA,0.153
17,ACAGAGCA,0.0833
18,ACTCATTA,0.268
19,ATATTGCG,0.119
20,AAGAAATC,-0.0386
21,CGCAGGTC,-0.0995
22,CCCCGTGA,0.0752
23,GAGAATAA,0.128
24,AAACTAGC,-0.0439
25,GGATAAAC,0.133

row,Sequence,PBM E-score
1,AACCTGCA,0.154
2,AACGGGCG,0.0331
3,AATACATA,0.0257
4,GGTTACAA,-0.0351
5,AAAGCACA,0.0449
6,GGGTTTAC,-0.0342
7,TATAAATA,0.255
8,ATACCTAA,0.222
9,ATACGCCG,-0.148
10,AGCGAGTA,0.144
11,GGATGGCC,-0.31
12,AGTGCCAA,-0.14
13,ACTGGCAC,-0.052
14,GATCTCAA,0.115
15,CTGAGACC,-0.124
16,AGAGCGAA,0.062
17,GAGGGGTA,-0.0925
18,GCTCATGA,0.055
19,CATTAGAC,-0.252
20,CGGCTACC,0.127
21,AATGCGTC,0.0563
22,CAGAGATA,0.106
23,ACGGGAAG,-0.186
24,GTTCCTTA,-0.0398
25,CAGAGTAA,-0.0973

row,Sequence,PBM E-score
1,AGAGCCTC,-0.224
2,CTGGCTCC,-0.242
3,TCATCGCA,-0.131
4,ACTAGCCC,-0.047
5,AGCACGTG,0.00832
6,AGGGAGTG,-0.088
7,AATAGTGA,0.0651
8,AGAGGCAG,0.0519
9,CCTCATAG,0.059
10,AACTGTAT,0.0876
11,GCTAGTAC,-0.114
12,CCAGGAAG,-0.164
13,TATCCTCA,0.0265
14,AGGCAACT,0.0578
15,AACGAAAT,0.251
16,AAGGGACC,0.424
17,ACGGTAAG,-0.164
18,GCGGGTAC,0.0243
19,ACAACACA,0.0869
20,CAACCGAA,0.171
21,AGAATGGC,0.0093
22,ACAGCCAT,0.0709

# — the supplement of paper PMC3334620
